Values from PubChem BioAssay AID1259327 (Drosophila RNAi Screening Center, 2017).

Assay: 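Data from controls in screens of zinc and manganese toxicity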
Cells: Drosophila S2R+ cells
Reagent: long dsRNA against Drosophila genes
Time to read-out: 5 days (water added on day 4, read one day later)
Challenge: water added as vehicle, no metal, one day before read-out
Measured: 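Luciferase ATP signal per well, normalised to plate mean, duplicate average converted to z-score across plates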
Reading the numbers: ATP z-score: higher = more total ATP than typical wells; ATP luminescence: higher = more total ATP
Call rule: 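a hit is any knock-down whose absolute ATP z-score is greater than 1.5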
Calls: active = hit: ATP up or down; inactive = no clear ATP change
In all, the deposit lists about 3,100 reagents; below is an unselected part. In the full data, 378 (12%) got an active call. 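Hits include both directions; z-score sign shows ATP rise or fall; raw luminescence values are not plate-normalised.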 Reagent sequences are not shown. Not stated in the record: the amount of reagent.

"ATP z-score, duplicate mean","ATP luminescence, replicate 1 (RLU)","ATP luminescence, replicate 2 (RLU)",call,predicted target,amplicon
0.429,7.78e5,7.23e5,inactive,Tsp97E,DRSC16019
-0.795,1.02e6,1.03e6,inactive,Tsp97E,DRSC28053
0.559,1.03e6,9.08e5,inactive,CG17637,DRSC11740
-1.36,4.62e5,5.31e5,inactive,Dg,DRSC06718
-0.31,6.68e5,9.56e5,inactive,klar,DRSC22393
2.01,9.53e5,9.70e5,active,Grl40a,DRSC03677
1.39,6.02e5,5.16e5,inactive,Grl40a,DRSC39639
1.18,6.97e5,7.72e5,inactive,Ir8a,DRSC17817
-0.723,6.32e5,6.98e5,inactive,Ir8a,DRSC17869
0.756,7.98e5,8.15e5,inactive,ninaD,DRSC02886
-0.105,8.07e5,8.68e5,inactive,ninaD,DRSC24484
1.07,7.17e5,7.16e5,inactive,Or49b,DRSC07494
1.33,9.54e5,1.18e6,inactive,CG5592,DRSC10524
-1.06,4.26e5,3.42e5,inactive,CG5592,DRSC39427
-1.04,5.90e5,6.73e5,inactive,VAChT,DRSC13311
-0.986,7.30e5,7.25e5,inactive,VAChT,DRSC23986
-0.802,7.74e5,8.07e5,inactive,CG32206,DRSC10095
0.525,6.64e5,9.44e5,inactive,CG32206,DRSC10096
0.14,8.49e5,6.40e5,inactive,mth,DRSC08725
0.907,5.91e5,7.23e5,inactive,mth,DRSC39165
-0.72,5.17e5,7.61e5,inactive,Gat,DRSC17144
-0.951,3.90e5,3.90e5,inactive,Gat,DRSC39474
-0.198,7.16e5,6.94e5,inactive,CG3652,DRSC00624
-0.135,8.85e5,7.81e5,inactive,CG32987,DRSC22373
0.892,9.86e5,8.79e5,inactive,CG32987,DRSC28687
-0.34,2.72e5,7.56e5,inactive,tomboy20,DRSC14913
-0.311,7.20e5,6.67e5,inactive,CG32988,DRSC02692
0.546,6.52e5,5.99e5,inactive,Gr36a,DRSC22663
0.459,9.06e5,9.67e5,inactive,Gr36a,DRSC27724
-0.0973,7.41e5,6.52e5,inactive,Nct,DRSC16172
0.308,4.33e5,5.42e5,inactive,Nct,DRSC39647
1.96,3.59e5,1.05e6,active,CG11737,DRSC14364
0.0998,4.90e5,4.82e5,inactive,MME1,DRSC02714
-0.129,4.79e5,4.12e5,inactive,MME1,DRSC39544
0.00936,7.46e5,7.09e5,inactive,Atet,DRSC00263
1.07,6.75e5,6.77e5,inactive,Atet,DRSC39890
-0.109,7.28e5,7.11e5,inactive,jagn,DRSC12152
-0.579,3.94e5,4.86e5,inactive,jagn,DRSC39810
0.00662,9.72e5,8.25e5,inactive,sas,DRSC12631
0.386,6.44e5,9.34e5,inactive,CG7990,DRSC19296
1.29,7.07e5,6.70e5,inactive,CG7990,DRSC23195
-1.7,8.75e5,1.04e6,active,CG7990,DRSC26580
0.293,7.91e5,7.24e5,inactive,Oatp26F,DRSC02149
-1.19,5.04e5,5.20e5,inactive,Oatp26F,DRSC02695
-0.0517,6.83e5,7.63e5,inactive,Oatp26F,DRSC27346
-1.18,3.57e5,4.38e5,inactive,Alg7,DRSC02833
1.24,8.45e5,8.71e5,inactive,Alg7,DRSC02834
-1.29,5.87e5,6.46e5,inactive,Or9a,DRSC18692
-0.356,8.34e5,7.31e5,inactive,Or9a,DRSC28277
-0.243,7.22e5,6.79e5,inactive,Sr-CIV,DRSC00575
0.804,9.76e5,8.68e5,inactive,Sr-CIV,DRSC24930
-0.499,6.94e5,6.82e5,inactive,LpR2,DRSC13726
0.349,9.79e5,9.06e5,inactive,LpR2,DRSC13728
-0.454,7.52e5,8.36e5,inactive,LpR2,DRSC25588
-0.484,6.44e5,5.07e5,inactive,CG13223,DRSC06344
0.472,4.34e5,5.63e5,inactive,CG13223,DRSC39714
-1.79,5.30e5,5.12e5,active,CG5805,DRSC15878
-2.14,3.25e5,3.14e5,active,CG5805,DRSC39631

9 successive records from above, quoted:
"ATP z-score, duplicate mean","ATP luminescence, replicate 1 (RLU)","ATP luminescence, replicate 2 (RLU)",call,predicted target,amplicon
-1.06,4.26e5,3.42e5,inactive,CG5592,DRSC39427
-1.04,5.90e5,6.73e5,inactive,VAChT,DRSC13311
-0.986,7.30e5,7.25e5,inactive,VAChT,DRSC23986
-0.802,7.74e5,8.07e5,inactive,CG32206,DRSC10095
0.525,6.64e5,9.44e5,inactive,CG32206,DRSC10096
0.14,8.49e5,6.40e5,inactive,mth,DRSC08725
0.907,5.91e5,7.23e5,inactive,mth,DRSC39165
-0.72,5.17e5,7.61e5,inactive,Gat,DRSC17144
-0.951,3.90e5,3.90e5,inactive,Gat,DRSC39474

Continued:
"ATP z-score, duplicate mean","ATP luminescence, replicate 1 (RLU)","ATP luminescence, replicate 2 (RLU)",call,predicted target,amplicon
0.249,7.27e5,8.15e5,inactive,emp,DRSC04019
-0.313,6.78e5,7.17e5,inactive,emp,DRSC04683
-0.413,6.45e5,7.54e5,inactive,bw,DRSC04005
0.0879,7.32e5,7.49e5,inactive,bw,DRSC04677
0.333,9.95e5,8.86e5,inactive,Cad74A,DRSC10636
0.401,7.60e5,9.85e5,inactive,CG3156,DRSC27939
-2.66,3.01e5,4.19e5,active,CG3156,DRSC39874
-0.214,6.64e5,8.58e5,inactive,CG33181,DRSC17971
-0.192,8.28e5,7.73e5,inactive,CG33181,DRSC29457
3.63,9.77e5,7.61e5,active,pHCl-1,DRSC09401
-0.631,6.50e5,6.99e5,inactive,pHCl-1,DRSC09991
-0.162,1.01e6,7.50e5,inactive,pHCl-1,DRSC10589
-0.386,7.02e5,7.38e5,inactive,CG2187,DRSC15425
-0.881,7.05e5,7.27e5,inactive,CG2187,DRSC25548
-0.803,8.06e5,7.23e5,inactive,ppk5,DRSC11492
0.81,5.72e5,4.66e5,inactive,ppk5,DRSC39548
0.434,6.35e5,7.69e5,inactive,ppk21,DRSC14466
-0.405,4.38e5,4.15e5,inactive,ppk21,DRSC39432
-0.69,2.78e5,6.63e5,inactive,CG6356,DRSC16026
-1.13,3.94e5,4.06e5,inactive,CG6356,DRSC39846
-0.474,6.38e5,7.12e5,inactive,CG16825,DRSC02526
-0.0789,4.44e5,4.76e5,inactive,CG16825,DRSC39689
3.13,8.28e5,9.79e5,active,fj,DRSC07619
0.711,9.05e5,1.25e6,inactive,fj,DRSC27535
-0.344,8.43e5,8.57e5,inactive,Or74a,DRSC11245
-0.161,7.19e5,6.99e5,inactive,Oatp33Eb,DRSC02955
0.0299,4.08e5,5.28e5,inactive,Oatp33Eb,DRSC39667
-0.0408,5.71e5,5.81e5,inactive,Or98b,DRSC21751
-1.07,4.90e5,5.55e5,inactive,Or45a,DRSC07487
-0.198,8.13e5,8.77e5,inactive,Or45a,DRSC27527
